Consider two molecules from article PMC4552788.

Experiment [1] addresses AtFT (Arabidopsis FLOWERING LOCUS T), yeast two-hybrid fusion (Arabidopsis), Q9SXZ2. Briefly: two-hybrid; directed test of pairs in yeast (Fig 7B): FT proteins against pAD:PaFD, its deletion and point mutants; AtFT with AtFD as positive control. The note with it: remark: other sources report otherwise.
Experiment [2] concerns the target AtFT, BiFC fusion expressed in Arabidopsis cells (Arabidopsis), Q9SXZ2. Nature of the experiment: split reporter; BiFC with split YFP in Arabidopsis leaf cells after particle bombardment; fluorescence intensity of nuclei compared. Particulars: remark: other sources report otherwise.

No constants are given. Whether binding was seen depends on the method and setting. For some assays here: Binding seen in cells or lysates may run through a third protein. Some binding calls cover weakened binding; strength is not graded here. Sequences can lack the tags named with a protein.

B1: AtFD, yeast two-hybrid fusion, Q84JK2 1-285 (protein)
chain: MLSSAKHQRNHRLSATNKNQTLTKVSSISSSSPSSSSSSSSTSSSSPLPSQDSQAQKRSLVTMEEVWNDINLASIHHLNRHSPHPQHNHEPRFRGQNHHNQNPNSIFQDFLKGSLNQEPAPTSQTTGSAPNGDSTTVTVLYSSPFPPPATVLSLNSGAGFEFLDNQDPLVTSNSNLHTHHHLSNAHAFNTSFEALVPSSSFGKKRGQDSNEGSGNRRHKRMIKNRESAARSRARKQAYTNELELEVAHLQAENARLKRQQDQLKMAAAIQQPKKNTLQRSSTAPF
Take B1: the binding entry in experiment [1] was “binds”.

B2: AtFD, BiFC fusion expressed in Arabidopsis cells, Q84JK2 1-285 (protein)
chain: B1 chain
For B2, the binding entry in experiment [2] is “binds”.
